Source: PMC7819943, “Rice protein-binding microarrays: a tool to detect cis-acting elements near promoter regions in rice”
The other results are listed elsewhere or left out.

What follows are sequences tested against T1, OsSMF1 (Oryza sativa, UniProt Q6ZLB0 1-436) (assay: protein-binding microarray (RPBM); PBS, 2% BSA, 51.3 ng/ul salmon testes DNA, 50 uM zinc acetate, 200 nM TF, 25 C, 1 h; high values mean tight binding). Details: protein: recombinant; tags: N-terminal polyhistidine and DsRed monomer fusion (pET32a); chain copies: 2; label: CyDye5-dUTP incorporated in the synthesized complementary strand; 3' TTTTT single-stranded linker to array surface; dsDNA, one strand shown.
T1 sequence: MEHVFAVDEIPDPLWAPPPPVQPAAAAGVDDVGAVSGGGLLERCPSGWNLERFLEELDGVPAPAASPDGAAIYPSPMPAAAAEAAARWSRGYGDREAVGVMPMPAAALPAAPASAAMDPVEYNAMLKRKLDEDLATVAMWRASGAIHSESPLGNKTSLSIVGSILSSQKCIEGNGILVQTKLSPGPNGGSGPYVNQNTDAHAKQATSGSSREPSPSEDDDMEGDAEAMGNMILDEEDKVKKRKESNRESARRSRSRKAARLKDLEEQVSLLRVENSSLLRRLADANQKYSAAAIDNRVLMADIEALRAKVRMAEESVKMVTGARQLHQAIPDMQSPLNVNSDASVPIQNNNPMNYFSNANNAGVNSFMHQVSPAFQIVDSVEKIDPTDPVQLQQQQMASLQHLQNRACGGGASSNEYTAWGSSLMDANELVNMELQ
Procedure, shortened: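 Binding signal is defined as the fluorescence intensity of each feature in arbitrary units, read on an Axon 4000B scanner. Transcription factors with N-terminal polyhistidine and DsRed fusions came from E. coli BL21-CodonPlus and were purified on Ni–NTA. They were incubated at 200 nM for 1 h at 25 °C on a custom Agilent array that had been made double-stranded with Cy5-dUTP, with 50 µM zinc acetate present, and the array was washed.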

Sequence	binding signal
AGACGCTGACAGGCCGGCTCCCACCTCCCAAGTCTCCAGTCGGAGTCACCTAGTGCAG	3920 fluorescence intensity (a.u.)
TAAATTGTTTTAGTCTGAGTGACGACTGCACCGTTACCAGCGGAGTCACCTAGTGCAG	4010 fluorescence intensity (a.u.)
AGCACTACCCAGCCACACAACCATAAGTCGTCTCTCAGTGCGGAGTCACCTAGTGCAG	3840 fluorescence intensity (a.u.)
CGCCTTCTCCGCCTTCGTCAGCAGCCGCAGCTTCTCCACGCGGAGTCACCTAGTGCAG	6050 fluorescence intensity (a.u.)
GACAAAGTCACACTGTCACACGTATTACCGGTTACAAACTCGGAGTCACCTAGTGCAG	3940 fluorescence intensity (a.u.)
AGGAAGTACCTCCGTCCCAAAATGTTACAATATTTAGTTACGGAGTCACCTAGTGCAG	27500 fluorescence intensity (a.u.)
CTGTGGCGTGCATCCGCAGAAATTCTCCACCAGCTCAGCCCGGAGTCACCTAGTGCAG	4280 fluorescence intensity (a.u.)
CTTCCCTCTCCTCATCCGCGTAAGGCCATCATCCCCACGCCGGAGTCACCTAGTGCAG	4070 fluorescence intensity (a.u.)
AGGGGATTGACAATTCGACATTGGCCAACTCTTTATCTGTCGGAGTCACCTAGTGCAG	3230 fluorescence intensity (a.u.)
CGCCTCCTCTCCTCCTCTCCCGCCGCCTCGTCACGCCGACCGGAGTCACCTAGTGCAG	6430 fluorescence intensity (a.u.)
TTTTGCTTAGCTGTTCTGTAATTGTCGATTTGAATTGGATCGGAGTCACCTAGTGCAG	3500 fluorescence intensity (a.u.)
CGAAGGAGTGGTTGGTGTTGATCTCTCTCTCCTTGCTTTGCGGAGTCACCTAGTGCAG	3330 fluorescence intensity (a.u.)
GACTTAACTTTAGTCCCTGTATTTAGACACTAATTTAGAGCGGAGTCACCTAGTGCAG	65500 fluorescence intensity (a.u.)
ACGCGCGGTGGCTAGACGTGTGTCTCGTGGACACAGCTCCCGGAGTCACCTAGTGCAG	3680 fluorescence intensity (a.u.)
TCCTACCACCACCTCCCGTACCACTCACTGACACGCGGGCCGGAGTCACCTAGTGCAG	5660 fluorescence intensity (a.u.)
CCTTATCCTCATTCCTCCTCATCCAGTCATCCCCAACCTCCGGAGTCACCTAGTGCAG	4680 fluorescence intensity (a.u.)
AACGCGTCTCAAGTCGATCTCAAACCCCACACACACAGCACGGAGTCACCTAGTGCAG	29700 fluorescence intensity (a.u.)
GTTATTGTGGCACAGTGATGATATAATGTTGATTGGAGTGCGGAGTCACCTAGTGCAG	3400 fluorescence intensity (a.u.)
AATGAAGAAGGGCTGACACGTACCTATATTCCGGGAACGACGGAGTCACCTAGTGCAG	6180 fluorescence intensity (a.u.)
TAAGATCACCTATAGATATATCATTCCAAGTCATAGATTGCGGAGTCACCTAGTGCAG	6060 fluorescence intensity (a.u.)
CATTATACTGTTCATAAACATGAATATCACAACCTGTTCTCGGAGTCACCTAGTGCAG	21100 fluorescence intensity (a.u.)

Taken from the listing for reference:
Sequence	binding signal
TTTTGCTTAGCTGTTCTGTAATTGTCGATTTGAATTGGATCGGAGTCACCTAGTGCAG	3500 fluorescence intensity (a.u.)
CGAAGGAGTGGTTGGTGTTGATCTCTCTCTCCTTGCTTTGCGGAGTCACCTAGTGCAG	3330 fluorescence intensity (a.u.)
GACTTAACTTTAGTCCCTGTATTTAGACACTAATTTAGAGCGGAGTCACCTAGTGCAG	65500 fluorescence intensity (a.u.)
ACGCGCGGTGGCTAGACGTGTGTCTCGTGGACACAGCTCCCGGAGTCACCTAGTGCAG	3680 fluorescence intensity (a.u.)
TCCTACCACCACCTCCCGTACCACTCACTGACACGCGGGCCGGAGTCACCTAGTGCAG	5660 fluorescence intensity (a.u.)
CCTTATCCTCATTCCTCCTCATCCAGTCATCCCCAACCTCCGGAGTCACCTAGTGCAG	4680 fluorescence intensity (a.u.)
AACGCGTCTCAAGTCGATCTCAAACCCCACACACACAGCACGGAGTCACCTAGTGCAG	29700 fluorescence intensity (a.u.)
GTTATTGTGGCACAGTGATGATATAATGTTGATTGGAGTGCGGAGTCACCTAGTGCAG	3400 fluorescence intensity (a.u.)
AATGAAGAAGGGCTGACACGTACCTATATTCCGGGAACGACGGAGTCACCTAGTGCAG	6180 fluorescence intensity (a.u.)

Following part.

Sequence	binding signal
ATTCCCCTCCAACAAATTGGGTCCCACGTGTCAATGGCTCCGGAGTCACCTAGTGCAG	10200 fluorescence intensity (a.u.)
TGCCGGGAAGCCGACCGGCTGACAACGCCGTGCAGCCACTCGGAGTCACCTAGTGCAG	3530 fluorescence intensity (a.u.)
GCCTCGTGTAACAGATGACAGAACATCGCGACCGTCCGTGCGGAGTCACCTAGTGCAG	3670 fluorescence intensity (a.u.)
AACTACGTACGCACGCACATTTGAGTAAATTTGTACTTCCCGGAGTCACCTAGTGCAG	22000 fluorescence intensity (a.u.)
GGCTGCCAACTCAGCCGGCCCACGCTCTCCGACACGTGGGCGGAGTCACCTAGTGCAG	12700 fluorescence intensity (a.u.)
ATCTTTTGAGCCTAATTAGTCTATGATTAGTCATAAGTGTCGGAGTCACCTAGTGCAG	3660 fluorescence intensity (a.u.)
ATTAGCCATAAGTGCTACAATAACCCACGTGTGTTAATGACGGAGTCACCTAGTGCAG	5050 fluorescence intensity (a.u.)
AATGGTGGGCCCACGTGGGCCCCACATGTCATTCTCACCCCGGAGTCACCTAGTGCAG	4980 fluorescence intensity (a.u.)
GGACGGGCTAACACGTCGTTATCCAGTCGAGCTAACAGGTCGGAGTCACCTAGTGCAG	24100 fluorescence intensity (a.u.)
CTGAACTGGTTCGTTTCTAATTGACTGTGTTTGTTTGTTTCGGAGTCACCTAGTGCAG	4590 fluorescence intensity (a.u.)
ACACGACACAACCTACACGTGCCAGGCCGTGCCAGTCCACCGGAGTCACCTAGTGCAG	3580 fluorescence intensity (a.u.)
TGGGCTAAGCGGTGGTGTATGGCGTCAGCTCACTTCAAGCCGGAGTCACCTAGTGCAG	6480 fluorescence intensity (a.u.)
GAAGGAATTGGATTGAATCAGAAAGGGGATCGATTCGATGCGGAGTCACCTAGTGCAG	45200 fluorescence intensity (a.u.)
TTACAGGTGTTGTCATTTTATGTGACCGGTCAGACCGGGCCGGAGTCACCTAGTGCAG	4510 fluorescence intensity (a.u.)
GTCGATGGCCACGATTGGCTATTTCTAGTGGCCTATGGGGCGGAGTCACCTAGTGCAG	3930 fluorescence intensity (a.u.)
GGCCAGCCGTGTAGGCGGAGGCACCACTCGGCGGCGACGGCGGAGTCACCTAGTGCAG	49900 fluorescence intensity (a.u.)
GCACCACAGCCACATCCTTATGATCATTGGCAGGGTGTTCCGGAGTCACCTAGTGCAG	3220 fluorescence intensity (a.u.)
GCGAGCTGTATGTACGTCATACGGCAGCAGCAATTCACGCCGGAGTCACCTAGTGCAG	8200 fluorescence intensity (a.u.)
GAAAGAAACTCCTAACCTTTCTTGTCGACGCAGTGGTCGTCGGAGTCACCTAGTGCAG	3550 fluorescence intensity (a.u.)
ACTCCGGTTTTATCCGACGTGGCAGCTGACTCAGCATGGGCGGAGTCACCTAGTGCAG	44300 fluorescence intensity (a.u.)
AATAAGTAGTTGGTGATACGTGTTAGCCACGAGGCATATACGGAGTCACCTAGTGCAG	4020 fluorescence intensity (a.u.)
